No constants are given. Whether binding was seen depends on the method and setting. Binding seen in cells or lysates may run through a third protein. Some binding calls cover weakened binding; strength is not graded here. Where a sequence is shown, tags or fusion partners need not be part of it.
Molecular target: T1, 3×FLAG-CFAP77 expressed in HEK293T cells (mouse)
T1 sequence: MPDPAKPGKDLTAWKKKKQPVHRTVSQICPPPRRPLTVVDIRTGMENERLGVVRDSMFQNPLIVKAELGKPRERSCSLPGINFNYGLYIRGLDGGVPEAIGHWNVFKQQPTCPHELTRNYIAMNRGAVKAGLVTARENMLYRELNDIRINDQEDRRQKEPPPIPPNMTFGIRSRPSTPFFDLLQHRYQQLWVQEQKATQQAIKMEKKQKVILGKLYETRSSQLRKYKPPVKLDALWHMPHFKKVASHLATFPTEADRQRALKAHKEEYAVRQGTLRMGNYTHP
Assay: co-IP; HEK293T cells transfected with 3×FLAG-Cfap77 and HA-Tektl1; immunoprecipitation on Dynabeads, immunoblot

By UniProt entry, the sequences of proteins in these tests, tags left out.
UniProt Q9D4K7: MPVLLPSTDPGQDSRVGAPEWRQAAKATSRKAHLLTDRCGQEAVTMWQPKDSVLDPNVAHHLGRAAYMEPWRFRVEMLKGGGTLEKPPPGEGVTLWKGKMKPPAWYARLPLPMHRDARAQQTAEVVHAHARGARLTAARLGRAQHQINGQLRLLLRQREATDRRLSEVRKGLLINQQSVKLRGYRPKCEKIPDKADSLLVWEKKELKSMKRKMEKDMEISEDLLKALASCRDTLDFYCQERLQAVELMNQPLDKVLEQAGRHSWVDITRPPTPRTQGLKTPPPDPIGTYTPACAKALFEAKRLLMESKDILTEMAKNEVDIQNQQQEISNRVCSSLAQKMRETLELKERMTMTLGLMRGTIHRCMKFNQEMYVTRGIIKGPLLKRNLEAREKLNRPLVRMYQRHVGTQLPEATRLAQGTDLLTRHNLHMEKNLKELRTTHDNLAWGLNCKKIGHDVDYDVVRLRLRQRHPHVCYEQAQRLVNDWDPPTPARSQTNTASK

- binding: binds
Substance: HA-TEKTL1 expressed in HEK293T cells (from UniProt Q9D4K7 1-499)

Reference: article PMC13002332
